This assay deals with MYC-RTN3 (Wild type RTN3 CDS with C-terminal MYC-tag and Flag-tag in pEnter) (UniProt O95197). Kind of assay: co-IP; lysate of primary cultured lung fibroblasts transfected with MYC-RTN3 plasmids; Protein A + G beads, 12 h; Western blot.

Sequences of proteins named here, by UniProt entry; tags and fusion partners are left off.
UniProt O95197: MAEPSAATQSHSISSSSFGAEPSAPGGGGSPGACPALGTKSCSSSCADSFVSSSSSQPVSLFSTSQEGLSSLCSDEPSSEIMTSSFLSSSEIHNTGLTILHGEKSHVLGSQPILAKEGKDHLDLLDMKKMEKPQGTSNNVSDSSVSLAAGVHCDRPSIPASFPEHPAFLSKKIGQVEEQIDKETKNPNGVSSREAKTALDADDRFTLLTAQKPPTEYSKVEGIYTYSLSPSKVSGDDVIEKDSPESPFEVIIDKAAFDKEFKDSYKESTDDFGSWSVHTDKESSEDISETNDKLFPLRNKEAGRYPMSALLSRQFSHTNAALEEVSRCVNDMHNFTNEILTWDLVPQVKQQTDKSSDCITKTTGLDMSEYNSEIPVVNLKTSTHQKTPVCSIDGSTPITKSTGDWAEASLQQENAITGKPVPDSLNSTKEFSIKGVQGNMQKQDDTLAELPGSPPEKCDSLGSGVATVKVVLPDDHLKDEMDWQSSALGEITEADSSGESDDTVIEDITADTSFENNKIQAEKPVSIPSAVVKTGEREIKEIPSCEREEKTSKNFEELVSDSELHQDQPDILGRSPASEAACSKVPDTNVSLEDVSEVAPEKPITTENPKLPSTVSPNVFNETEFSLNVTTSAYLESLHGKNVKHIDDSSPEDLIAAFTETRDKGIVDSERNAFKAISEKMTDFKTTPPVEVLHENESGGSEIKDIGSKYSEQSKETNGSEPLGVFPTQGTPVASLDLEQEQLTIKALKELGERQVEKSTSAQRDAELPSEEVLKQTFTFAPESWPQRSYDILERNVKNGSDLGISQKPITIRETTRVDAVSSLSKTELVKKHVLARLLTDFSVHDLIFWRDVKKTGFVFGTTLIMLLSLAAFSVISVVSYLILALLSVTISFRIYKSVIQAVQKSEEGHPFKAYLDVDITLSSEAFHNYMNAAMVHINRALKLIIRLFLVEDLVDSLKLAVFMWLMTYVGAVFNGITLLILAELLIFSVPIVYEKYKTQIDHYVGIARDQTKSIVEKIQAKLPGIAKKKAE

Results are given in words; binding and its absence hold for the method and conditions named. In cells and extracts the contact can be indirect. Some results given as binding are weak or reduced against the parent protein; the word gives no strength.

B1: CRTH2 (chemoattractant receptor-homologous molecule expressed on T-helper type 2 cells) (receptor, UniProt Q9Z2J6 1-382)
chain: MANVTLKPLCPLLEEMVQLPNHSNSSLRYIDHVSVLLHGLASLLGLVENGLILFVVGCRMRQTVVTTWVLHLALSDLLAAASLPFFTYFLAVGHSWELGTTFCKLHSSVFFLNMFASGFLLSAISLDRCLQVVRPVWAQNHRTVAVAHRVCLMLWALAVLNTIPYFVFRDTIPRLDGRIMCYYNLLLWNPGPDRDTTCDYRQKALAVSKFLLAFMVPLAIIASSHVAVSLRLHHRGRQRTGRFVRLVAAIVVAFVLCWGPYHIFSLLEARAHSVTTLRQLASRGLPFVTSLAFFNSVVNPLLYVFTCPDMLYKLRRSLRAVLESVLVEDSDQSGGLRNRRRRASSTATPASTLLLADRIPQLRPTRLIGWMRRGSAEVPQRV
Take B1: the binding result was “binds”.

The values are drawn from article PMC11837708.
